For this assay, the target named is T1, FLAG-SMN protein (Drosophila) (UniProt Q9VV74).
T1 sequence: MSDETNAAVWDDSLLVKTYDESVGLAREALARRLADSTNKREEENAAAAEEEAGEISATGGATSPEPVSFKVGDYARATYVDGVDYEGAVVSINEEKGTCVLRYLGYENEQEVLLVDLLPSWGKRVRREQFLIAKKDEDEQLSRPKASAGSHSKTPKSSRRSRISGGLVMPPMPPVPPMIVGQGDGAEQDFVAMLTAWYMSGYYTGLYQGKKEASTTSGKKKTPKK
The assay can be described thus: co-IP.

No constants are given. Whether binding was seen depends on the method and setting. Binding seen in cells or lysates may run through a third protein. Binding can be weak; no strength is given. Sequences can lack the tags named with a protein.

With “dLarp7 co-precipitated with FLAG-SMN (Drosophila)”, the binding entry is “binds”.

Source of the values: publication doi:10.64898/2025.11.30.691381.
